Source: the supplement of paper PMC10849652
The list shows a part of the results.

Sequences of proteins named here, by UniProt entry; tags and fusion partners are left off. A change or cut given only in a name is not applied to a line headed by its entry.
UniProt Q6XR72: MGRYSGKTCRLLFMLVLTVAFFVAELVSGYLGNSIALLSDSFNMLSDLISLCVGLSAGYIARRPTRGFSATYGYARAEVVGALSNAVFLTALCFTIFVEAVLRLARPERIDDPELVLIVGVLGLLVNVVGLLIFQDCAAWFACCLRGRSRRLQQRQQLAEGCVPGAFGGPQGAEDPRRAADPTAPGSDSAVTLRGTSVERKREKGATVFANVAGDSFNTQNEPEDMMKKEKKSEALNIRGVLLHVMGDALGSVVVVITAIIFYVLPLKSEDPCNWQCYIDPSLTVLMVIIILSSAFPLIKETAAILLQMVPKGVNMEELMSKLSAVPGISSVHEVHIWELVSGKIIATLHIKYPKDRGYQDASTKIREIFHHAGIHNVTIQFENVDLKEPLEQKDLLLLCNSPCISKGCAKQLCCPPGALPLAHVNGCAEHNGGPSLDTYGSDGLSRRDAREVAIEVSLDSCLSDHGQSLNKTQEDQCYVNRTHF
UniProt P41440: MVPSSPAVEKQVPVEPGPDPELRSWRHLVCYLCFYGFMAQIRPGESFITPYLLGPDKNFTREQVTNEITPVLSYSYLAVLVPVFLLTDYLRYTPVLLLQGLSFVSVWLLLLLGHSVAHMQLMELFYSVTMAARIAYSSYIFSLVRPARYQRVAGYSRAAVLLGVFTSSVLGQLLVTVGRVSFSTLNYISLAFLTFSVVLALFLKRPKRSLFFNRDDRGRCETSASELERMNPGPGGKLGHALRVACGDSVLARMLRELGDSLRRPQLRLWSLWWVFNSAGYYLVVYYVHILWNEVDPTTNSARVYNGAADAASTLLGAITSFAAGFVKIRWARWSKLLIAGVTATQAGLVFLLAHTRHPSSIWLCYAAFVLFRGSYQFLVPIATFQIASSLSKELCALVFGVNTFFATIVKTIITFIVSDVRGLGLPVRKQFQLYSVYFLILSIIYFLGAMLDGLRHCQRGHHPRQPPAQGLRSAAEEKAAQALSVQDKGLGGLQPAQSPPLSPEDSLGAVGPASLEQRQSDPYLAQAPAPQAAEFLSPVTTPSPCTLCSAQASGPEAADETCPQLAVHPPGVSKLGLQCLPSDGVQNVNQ
UniProt Q9NVC3: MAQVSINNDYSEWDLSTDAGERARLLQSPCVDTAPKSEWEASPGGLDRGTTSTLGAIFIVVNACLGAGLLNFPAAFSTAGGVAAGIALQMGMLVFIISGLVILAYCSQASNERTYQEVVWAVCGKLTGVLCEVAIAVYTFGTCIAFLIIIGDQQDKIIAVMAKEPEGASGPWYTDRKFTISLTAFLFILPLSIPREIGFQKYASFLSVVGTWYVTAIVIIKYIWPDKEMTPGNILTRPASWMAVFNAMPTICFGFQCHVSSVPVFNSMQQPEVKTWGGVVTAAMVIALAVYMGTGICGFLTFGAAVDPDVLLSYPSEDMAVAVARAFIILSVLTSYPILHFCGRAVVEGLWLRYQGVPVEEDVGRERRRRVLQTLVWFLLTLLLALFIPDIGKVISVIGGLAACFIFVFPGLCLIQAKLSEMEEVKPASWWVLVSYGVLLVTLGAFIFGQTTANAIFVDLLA
UniProt Q9UBX3: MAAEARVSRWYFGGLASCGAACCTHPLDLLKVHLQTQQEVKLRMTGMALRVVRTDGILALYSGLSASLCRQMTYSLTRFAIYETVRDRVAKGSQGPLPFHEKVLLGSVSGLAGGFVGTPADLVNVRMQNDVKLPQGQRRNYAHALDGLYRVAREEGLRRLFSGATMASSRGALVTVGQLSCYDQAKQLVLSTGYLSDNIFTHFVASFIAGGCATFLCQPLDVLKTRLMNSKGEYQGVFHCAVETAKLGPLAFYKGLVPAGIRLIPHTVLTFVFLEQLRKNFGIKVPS
UniProt Q70HW3: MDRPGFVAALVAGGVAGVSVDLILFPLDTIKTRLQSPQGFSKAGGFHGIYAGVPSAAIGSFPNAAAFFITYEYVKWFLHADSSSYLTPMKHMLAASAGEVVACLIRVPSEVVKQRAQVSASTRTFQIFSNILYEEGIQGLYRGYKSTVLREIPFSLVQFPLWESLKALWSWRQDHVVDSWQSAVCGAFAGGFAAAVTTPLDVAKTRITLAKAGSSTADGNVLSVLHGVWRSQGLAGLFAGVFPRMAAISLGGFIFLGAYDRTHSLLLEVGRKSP
UniProt Q96GZ6: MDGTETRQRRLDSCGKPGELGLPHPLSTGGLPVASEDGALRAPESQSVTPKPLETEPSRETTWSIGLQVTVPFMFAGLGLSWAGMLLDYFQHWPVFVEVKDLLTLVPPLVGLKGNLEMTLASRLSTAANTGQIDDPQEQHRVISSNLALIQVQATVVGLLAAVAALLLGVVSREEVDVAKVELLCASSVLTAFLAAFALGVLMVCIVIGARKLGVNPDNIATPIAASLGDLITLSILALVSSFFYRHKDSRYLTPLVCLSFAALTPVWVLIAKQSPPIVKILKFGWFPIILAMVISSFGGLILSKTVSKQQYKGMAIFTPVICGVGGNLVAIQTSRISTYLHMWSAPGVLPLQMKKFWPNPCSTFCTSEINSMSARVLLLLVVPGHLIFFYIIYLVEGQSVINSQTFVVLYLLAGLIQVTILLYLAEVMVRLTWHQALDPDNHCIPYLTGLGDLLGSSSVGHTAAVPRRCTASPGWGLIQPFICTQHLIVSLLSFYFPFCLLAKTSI
UniProt Q96QE2: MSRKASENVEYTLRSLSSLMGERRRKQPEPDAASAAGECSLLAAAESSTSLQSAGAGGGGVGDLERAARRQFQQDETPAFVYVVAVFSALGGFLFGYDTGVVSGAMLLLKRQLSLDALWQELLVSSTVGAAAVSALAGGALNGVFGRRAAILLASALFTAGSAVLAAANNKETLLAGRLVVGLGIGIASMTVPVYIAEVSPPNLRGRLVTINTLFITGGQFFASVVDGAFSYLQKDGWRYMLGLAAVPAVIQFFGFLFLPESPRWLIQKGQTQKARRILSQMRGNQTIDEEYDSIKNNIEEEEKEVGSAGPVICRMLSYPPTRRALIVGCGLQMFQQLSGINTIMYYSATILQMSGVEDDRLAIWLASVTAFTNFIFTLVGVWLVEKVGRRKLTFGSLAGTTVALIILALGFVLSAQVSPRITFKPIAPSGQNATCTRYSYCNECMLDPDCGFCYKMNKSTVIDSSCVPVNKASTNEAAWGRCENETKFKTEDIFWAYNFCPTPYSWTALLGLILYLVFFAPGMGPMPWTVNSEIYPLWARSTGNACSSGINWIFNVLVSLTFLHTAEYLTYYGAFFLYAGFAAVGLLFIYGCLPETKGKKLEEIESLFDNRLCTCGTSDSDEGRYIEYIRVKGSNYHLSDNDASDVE
UniProt P78382: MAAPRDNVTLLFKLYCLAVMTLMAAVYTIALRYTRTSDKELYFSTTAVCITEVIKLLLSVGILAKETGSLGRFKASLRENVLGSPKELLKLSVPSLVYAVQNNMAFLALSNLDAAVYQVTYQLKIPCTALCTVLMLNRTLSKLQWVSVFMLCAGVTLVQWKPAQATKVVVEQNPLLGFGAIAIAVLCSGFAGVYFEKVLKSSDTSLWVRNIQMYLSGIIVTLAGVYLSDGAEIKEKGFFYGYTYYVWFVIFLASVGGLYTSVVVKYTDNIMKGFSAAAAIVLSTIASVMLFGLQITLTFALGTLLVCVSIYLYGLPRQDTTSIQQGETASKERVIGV
UniProt Q9BV35: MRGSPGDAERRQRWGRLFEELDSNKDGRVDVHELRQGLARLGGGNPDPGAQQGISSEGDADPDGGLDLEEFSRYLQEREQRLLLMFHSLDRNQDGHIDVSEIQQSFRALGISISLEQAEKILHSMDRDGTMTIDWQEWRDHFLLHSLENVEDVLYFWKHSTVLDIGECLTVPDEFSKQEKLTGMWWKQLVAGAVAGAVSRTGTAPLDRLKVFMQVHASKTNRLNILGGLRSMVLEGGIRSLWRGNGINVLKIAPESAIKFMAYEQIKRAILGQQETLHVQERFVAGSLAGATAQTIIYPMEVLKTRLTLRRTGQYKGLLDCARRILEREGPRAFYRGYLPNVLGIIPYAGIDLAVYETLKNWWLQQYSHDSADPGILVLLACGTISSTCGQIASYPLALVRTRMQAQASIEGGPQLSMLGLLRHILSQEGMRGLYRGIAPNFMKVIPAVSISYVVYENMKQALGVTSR
UniProt Q9BZD2: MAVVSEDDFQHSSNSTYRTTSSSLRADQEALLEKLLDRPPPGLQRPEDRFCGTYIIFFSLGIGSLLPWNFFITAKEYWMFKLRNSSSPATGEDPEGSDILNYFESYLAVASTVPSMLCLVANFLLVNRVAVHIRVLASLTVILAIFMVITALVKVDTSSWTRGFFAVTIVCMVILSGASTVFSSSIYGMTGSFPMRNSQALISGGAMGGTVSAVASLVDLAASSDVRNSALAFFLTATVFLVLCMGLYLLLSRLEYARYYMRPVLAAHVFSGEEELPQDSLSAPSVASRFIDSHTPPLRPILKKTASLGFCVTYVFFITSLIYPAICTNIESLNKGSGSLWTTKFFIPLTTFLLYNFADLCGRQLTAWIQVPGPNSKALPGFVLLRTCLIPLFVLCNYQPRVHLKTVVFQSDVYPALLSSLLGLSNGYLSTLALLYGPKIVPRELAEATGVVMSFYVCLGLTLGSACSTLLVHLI
UniProt P49281: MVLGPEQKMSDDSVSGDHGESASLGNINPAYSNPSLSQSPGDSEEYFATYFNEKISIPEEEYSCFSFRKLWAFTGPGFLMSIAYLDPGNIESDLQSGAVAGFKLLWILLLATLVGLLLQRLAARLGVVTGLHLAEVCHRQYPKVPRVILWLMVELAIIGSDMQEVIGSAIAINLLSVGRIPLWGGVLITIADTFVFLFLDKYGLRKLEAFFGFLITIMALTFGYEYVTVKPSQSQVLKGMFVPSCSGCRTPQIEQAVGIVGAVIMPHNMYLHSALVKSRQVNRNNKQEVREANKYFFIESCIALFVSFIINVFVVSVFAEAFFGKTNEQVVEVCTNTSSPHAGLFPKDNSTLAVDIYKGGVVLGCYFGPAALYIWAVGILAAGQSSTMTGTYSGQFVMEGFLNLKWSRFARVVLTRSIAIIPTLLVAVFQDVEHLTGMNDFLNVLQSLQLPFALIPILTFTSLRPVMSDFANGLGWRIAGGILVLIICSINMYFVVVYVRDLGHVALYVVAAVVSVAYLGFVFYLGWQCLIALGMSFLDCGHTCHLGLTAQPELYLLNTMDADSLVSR
UniProt Q6PCB7: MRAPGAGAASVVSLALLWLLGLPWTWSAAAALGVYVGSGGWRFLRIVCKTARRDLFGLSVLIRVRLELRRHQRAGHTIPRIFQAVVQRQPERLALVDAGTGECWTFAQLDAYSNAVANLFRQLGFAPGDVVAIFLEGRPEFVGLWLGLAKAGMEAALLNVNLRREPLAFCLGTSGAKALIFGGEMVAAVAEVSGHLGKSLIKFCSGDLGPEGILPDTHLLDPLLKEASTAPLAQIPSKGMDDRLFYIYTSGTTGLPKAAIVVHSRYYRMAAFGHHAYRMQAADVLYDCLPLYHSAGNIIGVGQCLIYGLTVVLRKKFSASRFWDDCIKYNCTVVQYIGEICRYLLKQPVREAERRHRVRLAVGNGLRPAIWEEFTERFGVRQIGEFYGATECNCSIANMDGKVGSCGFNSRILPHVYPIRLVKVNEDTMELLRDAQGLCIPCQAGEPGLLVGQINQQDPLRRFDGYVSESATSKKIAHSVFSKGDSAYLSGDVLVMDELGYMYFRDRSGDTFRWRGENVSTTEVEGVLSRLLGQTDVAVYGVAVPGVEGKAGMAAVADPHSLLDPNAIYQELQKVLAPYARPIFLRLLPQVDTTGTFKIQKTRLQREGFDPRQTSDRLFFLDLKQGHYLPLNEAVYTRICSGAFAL
UniProt P48067: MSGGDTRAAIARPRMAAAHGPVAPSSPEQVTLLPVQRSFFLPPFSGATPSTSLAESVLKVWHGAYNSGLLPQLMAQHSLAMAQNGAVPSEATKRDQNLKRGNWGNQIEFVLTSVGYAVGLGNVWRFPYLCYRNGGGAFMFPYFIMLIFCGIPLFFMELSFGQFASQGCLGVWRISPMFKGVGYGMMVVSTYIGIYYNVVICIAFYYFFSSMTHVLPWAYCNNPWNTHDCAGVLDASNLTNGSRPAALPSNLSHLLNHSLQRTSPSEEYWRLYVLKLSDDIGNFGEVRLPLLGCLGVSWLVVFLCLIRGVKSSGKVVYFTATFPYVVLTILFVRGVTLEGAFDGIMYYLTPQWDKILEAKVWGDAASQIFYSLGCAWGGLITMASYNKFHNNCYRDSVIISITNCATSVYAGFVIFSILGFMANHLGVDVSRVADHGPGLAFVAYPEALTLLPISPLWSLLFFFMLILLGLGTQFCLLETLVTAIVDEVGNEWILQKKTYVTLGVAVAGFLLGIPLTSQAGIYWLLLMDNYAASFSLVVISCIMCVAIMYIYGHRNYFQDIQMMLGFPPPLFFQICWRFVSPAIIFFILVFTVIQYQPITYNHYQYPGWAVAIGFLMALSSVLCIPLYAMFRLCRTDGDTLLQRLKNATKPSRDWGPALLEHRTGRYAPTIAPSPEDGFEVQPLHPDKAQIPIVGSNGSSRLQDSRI

Tests used:
Assay in all cases: log2 fold change, soluble protein after heating vs DMSO (PISA); higher = thermal stabilisation; K562 cells, 10 uM, 30 min; active = over 0.2 and 3.5 SD of the protein, either way, in both replicates (recomputed)
[1] = compound: NC(=O)Nc1cc(-c2cccc(F)c2)sc1C(=O)N[C@H]1CCCNC1
Outline: (§1)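 Soluble protein was quantified by TMTpro 16plex LC-MS/MS after channel sums were equalised. It was obtained as the supernatant after 21,000xg for 90 min from pooled aliquots of K562 cells (2×10^6 cells/mL, 10 μM compound, 30 min) heated for 3 min across 48°C-58°C and extracted in PBS with 0.5% NP-40 at 4°C. Thermal stability values are relative to control samples and come from duplicates. They are given as log2 fold changes.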

[2] = compound: NC(=O)c1cnc(N[C@@H]2CCCC[C@@H]2N)nc1Nc1cccc(-n2nccn2)c1
Outline: as §1

[3] = compound: NC1(c2ccc(-c3nc4ccn5c(=O)[nH]nc5c4cc3-c3ccccc3)cc2)CCC1
Outline: as §1

[4] = compound: NCC(=O)Nc1ccc(-n2nc(C(F)(F)F)cc2-c2ccc3c(ccc4ccccc43)c2)cc1
Outline: as §1

entinostat = compound: Nc1ccccc1NC(=O)c1ccc(CNC(=O)OCc2cccnc2)cc1 [entinostat]
Outline: as §1

vorinostat = compound: O=C(CCCCCCC(=O)Nc1ccccc1)NO [vorinostat]
Outline: as §1

citarinostat = compound: O=C(CCCCCCNC(=O)c1cnc(N(c2ccccc2)c2ccccc2Cl)nc1)NO [citarinostat]
Outline: as §1

silmitasertib = compound: O=C(O)c1ccc2c(c1)nc(Nc1cccc(Cl)c1)c1ccncc12 [silmitasertib]
Outline: as §1

[5] = compound: O=C1NC(=O)C(c2cnc3ccccn23)=C1c1cn2c3c(cc(F)cc13)CN(C(=O)N1CCCCC1)CC2
Outline: as §1

[6] = compound: c1cc(OCCN2CCCCC2)cc(-c2n[nH]c3ccc(-c4nnc[nH]4)cc23)c1
Outline: as §1

entospletinib = compound: c1cn2cc(-c3ccc4cn[nH]c4c3)nc(Nc3ccc(N4CCOCC4)cc3)c2n1 [entospletinib]
Outline: as §1

Measured: log2 fold change

SLC38A9 (UniProt Q8NBW4)
inactive: [1] -0.129 | [2] 0.009 | [3] -0.113 | [4] -0.025 | entinostat 0.034 | vorinostat 0.007 | citarinostat 0.004 | silmitasertib 0.035 | [5] -0.044 | [6] -0.043

SLC25A17 (UniProt O43808)
inactive: [1] 0.164 | [2] 0.046 | [3] -0.011 | [4] 0 | entinostat 0.045 | vorinostat 0 | citarinostat 0.069 | silmitasertib 0.088 | [5] 0.149 | [6] -0.097 | entospletinib -0.004

SLC30A10 (UniProt Q6XR72)
inactive: [1] -0.035 | [2] 0.088 | [3] 0.084 | [4] 0.133 | entinostat -0.003 | vorinostat -0.215 | citarinostat -0.008 | silmitasertib -0.05 | [5] -0.005
active: [6] -0.432

SLC12A9 (UniProt Q9BXP2)
active: [3] -0.313
inactive: [1] 0.05 | [2] -0.142 | [4] -0.03 | entinostat 0.021 | vorinostat 0.027 | citarinostat 0.035 | silmitasertib 0.017 | [5] -0.081 | [6] -0.062

SLC19A1 (UniProt P41440)
inactive: [1] 0.1 | [2] 0.157 | [3] 0.036 | [4] 0.007 | entinostat -0.017 | vorinostat 0.057 | citarinostat 0.02 | silmitasertib -0.013 | [5] 0.207 | [6] -0.033

SLC38A7 (UniProt Q9NVC3)
inactive: [1] -0.017 | [2] 0.002 | [3] -0.299 | [4] 0.197 | entinostat -0.066 | vorinostat 0.11 | citarinostat 0.085 | silmitasertib 0.022 | [5] -0.107 | [6] -0.004

SLBP (UniProt Q14493)
inactive: [1] 0.043 | [2] 0.051 | [3] -0.028 | [4] -0.005 | entinostat 0.018 | vorinostat 0.085 | citarinostat 0.035 | silmitasertib 0.007 | [5] 0.064 | [6] 0.035

SLC27A4 (UniProt Q6P1M0)
inactive: [1] -0.086 | [2] -0.043 | [3] -0.034 | [4] 0.016 | entinostat -0.024 | vorinostat 0 | citarinostat 0.043 | silmitasertib 0.022 | [5] -0.073 | [6] -0.1

SLC25A10 isoform 2 (UniProt Q9UBX3)
inactive: [1] 0.039 | [2] 0.053 | [3] 0.012 | [4] 0.012 | entinostat -0.015 | vorinostat 0.01 | citarinostat 0.019 | silmitasertib 0.044 | [5] 0.145 | [6] -0.009 | entospletinib 0.007

SLC25A4 (UniProt P12235)
inactive: [1] -0.012 | [2] -0.035 | [3] -0.056 | [4] -0.006 | entinostat -0.019 | vorinostat -0.12 | citarinostat -0.021 | silmitasertib 0.009 | [5] -0.025 | [6] -0.002

SLC7A11 (UniProt Q9UPY5)
inactive: [1] -0.091 | [2] 0.01 | [3] 0.022 | [4] -0.025 | entinostat -0.009 | vorinostat -0.011 | citarinostat 0.041 | silmitasertib -0.021 | [5] 0.158 | [6] 0.031 | entospletinib -0.014

SLC10A4 (UniProt Q96EP9)
inactive: [1] -0.072 | [2] -0.262 | [3] -0.066 | [4] -0.342 | entinostat 0.011 | vorinostat -0.018 | citarinostat -0.109 | silmitasertib 0.22 | [5] -0.003 | [6] -0.069 | entospletinib -0.048

SLC25A26 (UniProt Q70HW3)
inactive: [1] -0.066 | [2] 0.006 | [3] -0.142 | [4] -0.084 | entinostat -0.079 | vorinostat -0.056 | citarinostat -0.027 | silmitasertib 0.108 | [5] 0.135 | [6] -0.066 | entospletinib -0.068

SLC41A3 isoform 9 (UniProt Q96GZ6)
inactive: [1] 0.11 | [2] 0.009 | [3] -0.046 | entinostat 0.244 | vorinostat -0.163 | citarinostat 0.017 | silmitasertib 0.188 | [5] 0.036 | [6] -0.157 | entospletinib -0.197

SLC12A5 (UniProt Q9H2X9)
inactive: [1] -0.111 | [2] -0.077 | [3] -0.064 | [4] -0.043 | entinostat -0.05 | citarinostat 0.129 | silmitasertib 0.05 | [5] -0.032 | [6] -0.062

SLC2A13 (UniProt Q96QE2)
inactive: [1] 0.007 | [2] 0.131 | [4] 0.038 | entinostat 0.114 | vorinostat -0.156 | citarinostat 0.078 | [5] -0.039 | [6] 0.042 | entospletinib -0.118

SLC25A15 (UniProt Q9Y619)
inactive: [1] 0.036 | [2] -0.025 | [3] -0.018 | [4] -0.009 | entinostat -0.035 | vorinostat -0.089 | citarinostat 0.031 | silmitasertib 0.019 | [5] -0.008 | [6] -0.102 | entospletinib -0.02

SLC43A3 isoform 2 (UniProt Q8NBI5)
inactive: [1] -0.043 | [2] 0.06 | [3] 0.11 | [4] 0.02 | entinostat -0.059 | vorinostat -0.075 | citarinostat -0.152 | silmitasertib -0.029 | [5] -0.007 | [6] -0.004 | entospletinib 0.106

SLC37A4 isoform 2 (UniProt O43826)
inactive: [1] 0.017 | [2] 0.022 | [3] 0.006 | [4] -0.02 | entinostat -0.007 | vorinostat -0.002 | citarinostat 0.013 | silmitasertib 0.044 | [5] 0.009 | [6] -0.001 | entospletinib -0.039

SLC33A1 (UniProt O00400)
inactive: [1] -0.022 | [2] 0.004 | [3] -0.023 | [4] 0.1 | entinostat 0.015 | vorinostat -0.047 | citarinostat 0.111 | silmitasertib 0 | [5] 0.008 | [6] -0.088 | entospletinib 0.01

SLC35A1 (UniProt P78382)
inactive: [1] -0.05 | [2] -0.015 | [3] -0.069 | [4] 0.1 | entinostat -0.065 | citarinostat 0.047 | silmitasertib 0.021 | [5] 0.028 | [6] -0.106

SLC35B4 (UniProt Q969S0)
inactive: [1] -0.006 | [2] -0.052 | [3] -0.094 | [4] -0.072 | entinostat -0.002 | citarinostat -0.009 | silmitasertib -0.034 | [5] -0.069 | [6] -0.06

SLC25A23 isoform 3 (UniProt Q9BV35)
inactive: [1] -0.073 | [2] -0.15 | [3] -0.157 | [4] 0.053 | entinostat -0.046 | vorinostat -0.038 | citarinostat 0.083 | silmitasertib 0.191 | [6] 0.076 | entospletinib -0.042

SLC29A3 (UniProt Q9BZD2)
inactive: [1] -0.098 | [2] -0.124 | [3] -0.304 | [4] 0.04 | entinostat -0.022 | citarinostat -0.123 | silmitasertib 0.047 | [5] 0.142 | [6] -0.033

SLC11A2 isoform 3 (UniProt P49281)
inactive: [1] -0.27 | [2] -0.103 | [3] -0.08 | [4] 0.049 | entinostat -0.049 | citarinostat 0.025 | silmitasertib 0.131 | [5] -0.047 | [6] -0.214 | entospletinib 0.091

SLC27A1 (UniProt Q6PCB7)
inactive: [1] 0.026 | [2] -0.012 | [3] -0.016 | [4] 0.038 | entinostat -0.013 | silmitasertib -0.039 | [5] 0.014

SLC35F2 (UniProt Q8IXU6)
inactive: [1] -0.037 | [2] 0.017 | [3] -0.018 | [4] 0.13 | entinostat 0.015 | vorinostat 0.025 | citarinostat 0.098 | silmitasertib -0.001 | [5] 0.04 | [6] -0.112 | entospletinib 0.025

SLC19A2 (UniProt O60779)
inactive: [1] 0.095 | [2] 0.006 | [4] -0.003 | entinostat 0.069 | citarinostat -0.02 | [5] -0.819 | [6] 0.177 | entospletinib -0.015

Pulled one by one from the list above, 2 records:
SLC19A2 (UniProt O60779)
inactive: [1] 0.095 | [2] 0.006 | [4] -0.003 | entinostat 0.069 | citarinostat -0.02 | [5] -0.819 | [6] 0.177 | entospletinib -0.015

SLC11A2 isoform 3 (UniProt P49281)
inactive: [1] -0.27 | [2] -0.103 | [3] -0.08 | [4] 0.049 | entinostat -0.049 | citarinostat 0.025 | silmitasertib 0.131 | [5] -0.047 | [6] -0.214 | entospletinib 0.091

Next part:

SLC6A9 (UniProt P48067)
inactive: [1] 0.011 | [2] 0.096 | [3] 0.131 | [4] 0.034 | entinostat -0.013 | vorinostat -0.054 | citarinostat 0.002 | silmitasertib -0.01 | [6] -0.134 | entospletinib -0.043
